PubChem BioAssay AID504793 | Drosophila RNAi Screening Center, 2011
The screen tested about 23,000 reagents; below is a random part of those with a known target gene and a result. In the full data, 62 (0.27%) got an active call. 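Calls come from follow-up tests whose scores are not deposited, so confirmed genes may have low counts here; counts are not normalised per plate.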 Raw values are not corrected between plates. A number with no mark means an inactive call.

Assay: 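Whole-genome screen for parts of the DNA damage checkpoint at G2/M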 (primary screen)
Cells: Drosophila S2R+ cells
Reagents: long dsRNA against Drosophila genes, about 0.25 µg dsRNA per well
Timing: 4 days of dsRNA, then 4 hours of drug before read-out
Challenge: doxorubicin 0.5 µM for 4 hours to cause double-strand breaks, in cells also given a low, harmless dose of dsRNA against nbs to sensitise the assay
Read-out: 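Mitotic index as the number of phospho-histone H3-positive cells in each well following doxorubicin, given as raw counts without normalisation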
Reading the numbers: mitotic cells: higher = more cells in mitosis, weaker G2 arrest
Active means: 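Genes are called active only when high mitotic counts were reproduced with independent dsRNAs and mitosis was checked for delay without damage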
Meaning of the calls: active = confirmed in follow-up tests; inactive = not confirmed

Depletion of CG12003 [DRSC08214] resulted in: mitotic cells, replicate 1 = 9. With knock-down of CG15027 [DRSC19608], the record shows mitotic cells, replicate 1 = 10. Against Slik [DRSC04471], the entry reads mitotic cells, replicate 1 = 10. Slik [DRSC29219] scored mitotic cells, replicate 1 = 8. After knock-down of simj [DRSC10942] the results were mitotic cells, replicate 1 = 2. simj [DRSC25345] showed mitotic cells, replicate 1 = 3.

Against MED26 [DRSC17126], the entry reads mitotic cells, replicate 1 = 19. For MED26 [DRSC17147], the entry reads mitotic cells, replicate 1 = 15. Silencing of MED26 [DRSC17148] gave: mitotic cells, replicate 1 = 12. After knock-down of CG13003 [DRSC19522] the results were mitotic cells, replicate 1 = 13. Silencing of Archease [DRSC16025] resulted in: mitotic cells, replicate 1 = 8. Silencing of CG17646 [DRSC00507] gave: mitotic cells, replicate 1 = 7.

CG15155 [DRSC02456] showed mitotic cells, replicate 1 = 9. Depletion of Syn1 [DRSC11803] gave: mitotic cells, replicate 1 = 1. With knock-down of Syn1 [DRSC11804], the screen gave mitotic cells, replicate 1 = 7. Syn1 [DRSC30039] showed mitotic cells, replicate 1 = 8. With knock-down of CG3085 [DRSC04335], the screen gave mitotic cells, replicate 1 = 3. After knock-down of CG7488 [DRSC16250] the results were mitotic cells, replicate 1 = 7.

After knock-down of CG32603 [DRSC19409], the record shows mitotic cells, replicate 1 = 16. CG32603 [DRSC21586] scored mitotic cells, replicate 1 = 8. CG32603 [DRSC25240] scored mitotic cells, replicate 1 = 6. Depletion of CG5255 [DRSC15754] gave: mitotic cells, replicate 1 = 4. Depletion of CG5255 [DRSC24877] came out at: mitotic cells, replicate 1 = 9. Rtca [DRSC18517] gave mitotic cells, replicate 1 = 5.

Knock-down of CG31550 [DRSC12197] came out at: mitotic cells, replicate 1 = 7. After knock-down of CG31550 [DRSC12198] the results were mitotic cells, replicate 1 = 6. Depletion of CG31550 [DRSC29447] gave: mitotic cells, replicate 1 = 5.

7 entries from above in another layout:
target gene,DRSC id,"mitotic cells, replicate 1"
CG15027,DRSC19608,10
Slik,DRSC04471,10
Slik,DRSC29219,8
simj,DRSC10942,2
simj,DRSC25345,3
MED26,DRSC17126,19
MED26,DRSC17147,15

Continued:
IntS6 [DRSC18281] gave mitotic cells, replicate 1 = 12. IntS6 [DRSC30100] scored mitotic cells, replicate 1 = 7. After knock-down of CG11854 [DRSC14409] the results were mitotic cells, replicate 1 = 6. Depletion of Ras64B [DRSC08689] resulted in: mitotic cells, replicate 1 = 5. Knock-down of Ras64B [DRSC26766] gave: mitotic cells, replicate 1 = 5. After knock-down of Gba1b [DRSC21531], the record shows mitotic cells, replicate 1 = 12.

Against Las [DRSC11772], the values are mitotic cells, replicate 1 = 11. With knock-down of Las [DRSC26539] the results were mitotic cells, replicate 1 = 12. With knock-down of Ptp36E [DRSC03021] the results were mitotic cells, replicate 1 = 7. Knock-down of CG13157 [DRSC06282] came out at: mitotic cells, replicate 1 = 6. After knock-down of CG31183 [DRSC14403], the screen gave mitotic cells, replicate 1 = 5. Silencing of CG31183 [DRSC15554] gave: mitotic cells, replicate 1 = 2.

Depletion of Septin5 [DRSC06843] came out at: mitotic cells, replicate 1 = 4. For Septin5 [DRSC29954], the entry reads mitotic cells, replicate 1 = 3. For Dif [DRSC03316] the deposit lists mitotic cells, replicate 1 = 6. Against CG11123 [DRSC06040], the entry reads mitotic cells, replicate 1 = 16. With knock-down of CG11123 [DRSC28420], the record shows mitotic cells, replicate 1 = 4.
